# Assay results taken from PubChem BioAssay AID624297 (National Center for Advancing Translational Sciences (NCATS), 2012).
# About 6,200 (1.8%) of roughly 340,000 compounds were called active. Inconclusive means that the source gave no clear call. Such entries were picked first, then a sample of the others. Calls come from the whole dose curve; as a rule, active = well fitted activation curve with a large enough effect; inconclusive = small, poorly fitted or top-dose-only effect; inactive = no such curve, though single readings can be large or run the other way. Potencies of inconclusive entries are doubtful fits and often do not repeat.
# Assay: A quantitative high throughput screen for small molecules that induce DNA re-replication in SW480 colon adenocarcinoma cells. Note: nearly all actives have a fitted effect of over 55% in size.
# Conditions: Hoechst DNA content imaging, 48 h; series mostly up to 46.1 µM
# Outline: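 Readout is total intensity of Hoechst-stained nuclei, excited at 405 nm and collected at 500-530 nm. Compound treatment lasted 48 hr at 37 C in 5% CO2 before staining.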
# Potency is the fitted concentration of half-maximal effect.
row,Structure (SMILES),Potency
1,C/C=C\C(=O)Nc1cccc(C2=NOC3(C2)C[C@H](C(N)=O)N(C(=O)/C=C/CC)C3)c1 (stereo not given in full),"inconclusive: 5.8 µM [activator, single point]"
2,O=c1c2ccccc2nc(/C=C/c2cccnc2)n1CCc1ccccc1,inactive
3,O=C(CC(=O)NC1CCCCC1)N/N=C/c1ccccc1Cl,"inconclusive: 20.6 µM [activator, partial curve, poor fit]"
4,Cc1ccc(CNC(=O)Cc2ccc(-n3cccc3)cc2)cc1,active: 4.11 µM
5,CN(C(=O)C(Cl)Cl)C1CC2C=CC1C2 (stereo not given),inactive
6,N#Cc1ccc(CSc2nnc(Cc3cccs3)n2Cc2ccco2)cc1,inactive
7,N=c1c2c(n(Cc3ccc(Cl)c(Cl)c3)c3c1CCC3)CCCC2,inactive
8,N=C1C(c2nc3ccccc3s2)=C(O)CN1NC(=O)c1ccc([N+](=O)[O-])cc1,"inconclusive: 20.6 µM [activator, single point]"
9,O=C(CSc1nc(Nc2ccccc2)nc(N2CCOCC2)n1)Nc1ccc(Br)cc1F,"inconclusive: 29.1 µM [activator, single point]"
10,CC(=O)c1c(C(C)=O)c(C)n(-c2nc(-c3ccc(Br)cc3)c(C)s2)c1C,"inconclusive: 7.31 µM [activator, partial curve, poor fit]"
11,Cc1sc(NC(=O)CN(Cc2ccc(F)cc2)C(=O)C(C)C)c(C(N)=O)c1C,inactive
12,NS(=O)(=O)c1ccc(CNC(=O)/C=C/c2c(F)cccc2Cl)cc1,"inconclusive: 29.1 µM [activator, single point]"
13,Cc1cc(OC(=O)c2ccccc2F)c([N+](=O)[O-])c(=O)[nH]1,inactive
14,COc1ccc(-c2nnc(NC(=O)CS(=O)(=O)c3ccc(F)cc3)o2)cc1,inactive
15,CCN(CC)CCCNc1cc(C(F)(F)F)c(C#N)c2nc3ccccc3n12,"inconclusive: 9.2 µM [activator, partial curve]"
16,Cn1c(SCC(=O)N2CCc3ccccc32)nnc1-c1ccc(S(=O)(=O)N2CCCC2)cc1,"inconclusive: 4.11 µM [activator, full curve, poor fit]"
17,NC(=O)C(=O)NCCCN1CCOCC1,"inconclusive: 6.51 µM [activator, partial curve, poor fit]"
18,COC(=O)Nc1ccc2c(c1)N(C(=O)CCCl)c1ccccc1S2,"inconclusive: 29.1 µM [activator, single point]"
19,Cc1cc2nc3c(=O)n(Cc4ccccc4)c(=O)[nH]c3nc2cc1N,"inconclusive: 7.31 µM [activator, partial curve, poor fit]"
20,O=C(NC(NC(=S)Nc1ccccc1O)C(Cl)(Cl)Cl)c1ccco1 (stereo not given),"inconclusive: 6.51 µM [activator, single point]"
21,CC1(c2cccc(Br)c2)NC(=O)NC1=O (stereo not given),"inconclusive: 0.651 µM [activator, partial curve, poor fit]"
22,COc1ccc(-c2nc3n(c2C)CCC3)cc1,inactive
23,CN(CCCC(=O)NC1CC(C)(C)NC(C)(C)C1)S(=O)(=O)c1ccc([N+](=O)[O-])cc1,"inconclusive: 18.4 µM [activator, single point]"
24,Cc1cc(C)cc(N(CC(=O)NCc2cccnc2)S(C)(=O)=O)c1,"inconclusive: 29.1 µM [activator, single point]"

# In the list so far, two have a thiophene ring, fused or not.
row,Structure (SMILES),Potency
6,N#Cc1ccc(CSc2nnc(Cc3cccs3)n2Cc2ccco2)cc1,inactive
11,Cc1sc(NC(=O)CN(Cc2ccc(F)cc2)C(=O)C(C)C)c(C(N)=O)c1C,inactive

# More records

row,Structure (SMILES),Potency
1,COc1ccc(C(=S)N2CCN(c3ccccc3C)CC2)cc1OC,"inconclusive: 29.1 µM [activator, single point]"
2,CCN(CC)CC(=O)Nc1ccc(-c2ccc(NC(=O)CN(CC)CC)c(OC)c2)cc1OC,"inconclusive: 16.4 µM [activator, partial curve]"
3,CS(=O)(=O)N1CC2CCCN2c2cc(C(F)(F)F)ccc21 (stereo not given),"inconclusive: 20.6 µM [activator, partial curve, poor fit]"
4,COc1ccc(C2C(C(=O)NCc3ccccn3)CCC(=O)N2c2cc(OC)c(OC)c(OC)c2)cc1 (stereo not given),inactive
5,O=C(Nc1cccc(S(=O)(=O)N2CCCCCC2)c1)C1CCN(C(=O)c2ccc(Cl)cc2)CC1,"inconclusive: 0.92 µM [activator, partial curve, poor fit]"
6,O=C(COc1ncnc2sccc12)NC1CCCCC1,inactive
7,Cc1cnn(-c2nc(-c3ccccc3)cc(-c3ccccc3)n2)c1,"inconclusive: 32.6 µM [activator, single point]"
8,Cc1cc(NC(=O)Nc2ccc(C)c(C)c2)no1,"inconclusive: 18.4 µM [activator, single point]"
9,CCOC(=O)Cc1csc(NC(=O)Nc2ccc(C)cc2)n1,inactive
10,COc1ccc(N2CCN(CCC(=O)c3ccc4ccccc4c3)CC2)cc1,"inconclusive: 29.1 µM [activator, partial curve, poor fit]"
11,CC(C)COc1cccc(C(=O)Nc2cc(S(=O)(=O)N3CCOCC3)ccc2N2CCCC2)c1,inactive
12,CCC1=NN2C(=N)/C(=C/c3ccc(OS(=O)(=O)c4ccc(C)cc4)c(OC)c3)C(=O)N=C2S1,"inconclusive: 16.4 µM [activator, single point]"
13,COc1cc(/C=N/O)cc(Br)c1OCc1ccc(Cl)cc1,"inconclusive: 31.6 µM [activator, single point]"
14,Cc1ccc(NC2=NC3(CCCC3)N=C(N)N2)c(C)c1,"inconclusive: 29.1 µM [activator, single point]"
15,CC1CCC(NC(=O)COC(=O)c2cccnc2Cl)CC1 (stereo not given),inactive
16,COc1ccc(NC(=O)Nc2ccc(Cc3ccncc3)cc2)c(OC)c1,inactive
17,CCC(C)NC(=O)c1ccc(N2CC3CC(C2)c2cccc(=O)n2C3)c(NC(=O)c2ccc(Br)o2)c1 (stereo not given),inactive
18,CCCCCOc1ccc(C(=O)CCN2CCOCC2)cc1,inactive
19,O=C1OC(CN2CCOCC2)CN1N=Cc1ccc([N+](=O)[O-])o1 (stereo not given),"inconclusive: 11.2 µM [activator, partial curve, poor fit]"
20,N#CC(C#N)=C1C=CC=CN1/C(=C\c1ccco1)C(=O)c1ccc(Cl)cc1,active: 2.59 µM
21,O=C(COc1ccccc1)NC1CCCCCCC1,"inconclusive: 1.3 µM [activator, full curve, poor fit]"
22,COc1cccc(NC(=O)C2CCN(Cc3cnn(-c4ccccc4)c3-n3cccc3)CC2)c1,"inconclusive: 1.84 µM [activator, partial curve, poor fit]"
23,Cc1cc(=O)[nH]c(N/N=C/c2ccc(Br)s2)n1,inactive
24,CCN(CC)c1ccc(NC(=O)c2cccc(F)c2)c(C)c1,active: 18.4 µM

# Single values from the list.
# Potency with Cc1cc(=O)[nH]c(N/N=C/c2ccc(Br)s2)n1 reads inactive
# Potency with Cc1cc(NC(=O)Nc2ccc(C)c(C)c2)no1 reads inconclusive: 18.4 µM [activator, single point]

# Following part:

row,Structure (SMILES),Potency
1,CC1Cc2ccccc2N1C(=O)COC(=O)c1ccccc1NCCO (stereo not given),"inconclusive: 29.1 µM [activator, single point]"
2,COc1ccc(Cl)cc1/C=C1/C(=O)ON=C1C,"inconclusive: 3.66 µM [activator, single point]"
3,Cc1ccc(-c2cn3cccnc3n2)cc1NC(=O)c1c(-c2ccccc2Cl)noc1C,"inconclusive: 23.1 µM [activator, single point]"
4,COc1ccc(C(=O)NC(=S)Nc2cccnc2)cc1[N+](=O)[O-],inactive
5,Cc1nnc(N(Cc2ccco2)C(=O)c2cccc(C#N)c2)s1,"inconclusive: 1.16 µM [activator, full curve]"
6,CCCCc1cc(=O)oc2cc(O)cc(O)c12,inactive
7,O=C(COC(=O)c1cc[n+]([O-])cc1)Nc1cccc(Br)c1,"inconclusive: 29.1 µM [activator, partial curve, poor fit]"
8,c1ccc(C(c2ccccc2)N2CCN(Cc3nnnn3C3CCCCC3)CC2)cc1,"inconclusive: 23.1 µM [activator, single point]"
9,Cc1ccc(Oc2ccc(S(=O)(=O)N3CCOCC3)cc2C(N)=O)c(-n2nc3ccccc3n2)c1,active: 5.17 µM
10,O=C1NN(c2ccccc2)C(=O)/C1=C\c1ccccc1,"inconclusive: 32.6 µM [activator, partial curve, poor fit]"
11,COc1cc(C(=O)N/N=C/c2cc([N+](=O)[O-])cs2)cc(OC)c1OC,"inconclusive: 2.06 µM [activator, full curve, poor fit]"
12,O=C(N/N=C\c1cn[nH]c1-c1ccccc1)c1ccc([N+](=O)[O-])cc1,active: 4.11 µM
13,O=C1CCCN1c1ccc(S(=O)(=O)N2CCCCC2)cc1[N+](=O)[O-],"inconclusive: 0.731 µM [activator, partial curve, poor fit]"
14,COc1cc(NC(=O)c2cc(-c3ccccc3Cl)on2)cc(OC)c1OC,"inconclusive: 20.6 µM [activator, single point]"
15,Cn1c(Cc2ccccc2)n[nH]c1=S,inactive
16,C=C1CC(Cn2cc(Br)c(=O)[nH]c2=O)(c2ccc(-c3ccccc3)cc2)OC1=O (stereo not given),"inconclusive: 0.411 µM [activator, full curve, poor fit]"
17,CCOc1ccc(N(C(C)C(=O)N2CCCC2)S(C)(=O)=O)cc1 (stereo not given),inactive
18,COc1cc([N+](=O)[O-])ccc1NC(=O)CCCOc1cccc(C)c1C,inactive
19,COc1ccc(OC)c(Nc2nc(-c3sc(NC(=O)C(C)(C)C)nc3C)cs2)c1,"inconclusive: 13 µM [activator, partial curve, poor fit]"
20,COc1cc(/C=C2\SC(=Nc3ccccc3OC)NC2=O)ccc1O,active: 20.6 µM
21,COc1ccc(C2c3ccc(O)cc3Oc3ncn4nc(-c5ccncc5)nc4c32)cc1OC (stereo not given),"inconclusive: 25.9 µM [activator, single point]"
22,COc1cc(S(=O)(=O)n2c(C)nc3ccccc32)ccc1F,"inconclusive: 29.1 µM [activator, single point]"
